Not every detail of the peptide structures is certain; ends, links or a residue may be inferred. For some assays here: For at least one compound, name, drawing or mass did not settle the structure. Numbered stars: 1 amine (or outer) side, 2 acyl side, 3 side chain; on linkers, the order of the positions; unused ones are H or OH. Square brackets hold non-standard residues; d marks the D form. Peptide text beside a SMILES is read from it. * marks the point of attachment. X2 = O=C(O)CN(CC(=O)O)c1ccc(-c2c3cc(F)c(=O)cc-3oc3cc(O)c(F)cc23)cc1OCC(=O)*; X1 = O=C([C@H](CO)N(c1ccc([N+](=O)[O-])c2nonc12)[*:1])[*:2]; Cysteamide = C(CS[*:3])N[*:1]; Sar = CNCC(=O)O
Experiments:
Ca2+ titration assay = type: physicochemical; settings: saturating [Ca2+]
[1] = test system: PKC in mitotic HeLa cell lysates; experiment: PKC activity in mitotic HeLa cell lysates; type: biochemical; settings: over the course of 1 hr

Compound | fluorescence enhancement produced by Ca2+ (Ca2+ titration assay) [fold] | fluorescence change in cPKC (α, β, γ) immunodepleted lysate [1]
CN(CC(=O)N[C@@H](CO)C(=O)N[C@@H](Cc1ccccc1)C(=O)N[C@@H](CCCNC(=N)N)C(=O)N[C@@H](CCCNC(=N)N)C(=O)N[C@@H](CCCNC(=N)N)C(=O)N[C@@H](CCCNC(=N)N)C(=O)NCCS)C(=O)COc1cc(-c2c3cc(F)c(=O)cc-3oc3cc(O)c(F)cc23)ccc1N(CC(=O)O)CC(=O)O [N-Me glycine] (X2-[Sar]SFRRRR-Cysteamide) | 2.0 | –
N=C(N)NCCC[C@H](NC(=O)[C@H](CCCNC(=N)N)NC(=O)[C@H](CCCNC(=N)N)NC(=O)[C@H](CCCNC(=N)N)NC(=O)[C@H](Cc1ccccc1)NC(=O)[C@H](CO)Nc1ccc([N+](=O)[O-])c2nonc12)C(=O)N[C@@H](CCCCN)C(N)=O [peptide 2, 7-nitrobenz-2-oxa-1,3-diazole (NBD)-NH-Ser-Phe-Arg4-Lys-amide] (H-[X1]FRRRRK-NH2) | – | No change in fluorescence intensity
